Results deposited as PubChem BioAssay AID1224826 (NIAID, 2016)
In all, the deposit lists about 17,000 reagents; shown is a part drawn at random. Over the whole deposit, about 1,110 (6.6%) got an active call. 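Active means lowered or raised reporter signal; replicate intensities are raw and not normalised per plate.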 Unmarked entries are inactive.

- Assay: 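Knock-downs that raise or lower Tnf reporter signal after endotoxin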 (primary screen)
- System: RAW264.7 G9 macrophages from mouse bearing reporters for p65 (GFP) and the Tnf promoter (mCherry)
- Knock-down reagent: siRNA pool against mouse genes, 100 nM
- Time to read-out: 16 h of LPS stimulation, after 2 days of siRNA transfection
- Treatment: bacterial lipopolysaccharide (Salmonella minnesota R595), 10 ng/ml
- Detection: 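Imaged Tnf reporter mCherry in nuclei, minus background, normalised per plate to the median and expressed as robust z-scores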
- Direction: Tnf reporter robust z-score: higher = stronger Tnf promoter reporter signal after LPS; Tnf reporter intensity: higher = stronger Tnf promoter reporter signal
- Call rule: 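Called active when robust z-score is at most -1.3, matching the median of the Tlr4 knock-down control, or over 3; control wells and wells with under 50 cells never active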
- Calls: active = Tnf reporter clearly lowered or raised; inactive = no clear change in Tnf reporter

gene | Tnf reporter robust z-score | fewer than 50 cells in well | Tnf reporter intensity, replicate 1 | Tnf reporter intensity, replicate 2
Max (Max protein) | 1.09 | enough cells in well | 394 | 253
Lamtor2 (late endosomal/lysosomal adaptor, MAPK and MTOR activator 2) | 0.79 | enough cells in well | 247 | 179
Fam216a (family with sequence similarity 216, member A) | – | fewer than 50 cells per well; well left out of calls | 80.4 | 20.2
Ppp1r12a (protein phosphatase 1, regulatory subunit 12A) | 0.13 | enough cells in well | 225 | 228
Bsdc1 (BSD domain containing 1) | 1.86 | enough cells in well | 308 | 154
Plaa (phospholipase A2, activating protein) | 0.58 | enough cells in well | 316 | 210
Usp14 (ubiquitin specific peptidase 14) | 0.29 | enough cells in well | 244 | 261
Ruvbl2 (RuvB-like AAA ATPase 2) | 0.12 | enough cells in well | 348 | 196
Fam199x (family with sequence similarity 199, X-linked) | 0.45 | enough cells in well | 248 | 227
Dync1h1 (dynein cytoplasmic 1 heavy chain 1) | 0.73 | enough cells in well | 277 | 269
Mtmr3 (myotubularin related protein 3) | -1.71 (active) | enough cells in well | 126 | 75.6
Nat8f1 (N-acetyltransferase 8 (GCN5-related) family member 1) | 0.87 | enough cells in well | 278 | 138
Vegfc (vascular endothelial growth factor C) | 1 | enough cells in well | 309 | 306
Hspa4 (heat shock protein family A (Hsp70) member 4) | -0.26 | enough cells in well | 267 | 128
Klra6 (killer cell lectin-like receptor, subfamily A, member 6) | -0.46 | enough cells in well | 223 | 112
Wnt8a (WNT family member 8A) | -0.52 | enough cells in well | 162 | 222
C1qtnf3 (C1q and tumor necrosis factor related protein 3) | – | fewer than 50 cells per well; well left out of calls | 112 | 155
Tmem35a (transmembrane protein 35A) | 0.47 | enough cells in well | 244 | 181
Gpr155 (G protein-coupled receptor 155) | 0.28 | enough cells in well | 201 | 384
Rnf216 (ring finger protein 216) | -0.56 | enough cells in well | 182 | 192
Lrrc1 (leucine rich repeat containing 1) | -0.52 | enough cells in well | 168 | 111
Cd19 (CD19 antigen) | -1.15 | enough cells in well | 143 | 134
Pth1r (parathyroid hormone 1 receptor) | 0.56 | enough cells in well | 403 | 82
Xlr3a (X-linked lymphocyte-regulated 3A) | -1.19 | enough cells in well | 71.1 | 78.1
Gpr150 (G protein-coupled receptor 150) | -0.66 | enough cells in well | 143 | 274
Or4f57 (olfactory receptor family 4 subfamily F member 57) | -0.33 | enough cells in well | 157 | 110
Zfp574 (zinc finger protein 574) | -0.3 | enough cells in well | 167 | 123
Bach1 | 2.59 | enough cells in well | 266 | 311
Aqp12 (aquaporin 12) | -1.06 | enough cells in well | 117 | 136
Or4c52 (olfactory receptor family 4 subfamily C member 52) | 2.25 | enough cells in well | 333 | 201
Sdad1 (SDA1 domain containing 1) | 1.05 | enough cells in well | 181 | 165
Zc3h10 (zinc finger CCCH type containing 10) | -0.17 | enough cells in well | 226 | 146
Phgr1 (proline/histidine/glycine-rich 1) | – | fewer than 50 cells per well; well left out of calls | 333 | 56.7
Susd4 (sushi domain containing 4) | 0.04 | enough cells in well | 177 | 124
Clca3a2 (chloride channel accessory 3A2) | 0.36 | enough cells in well | 213 | 158
9530019H20Rik (RIKEN cDNA 9530019H20 gene) | -0.29 | enough cells in well | 190 | 142
Csf3r (colony stimulating factor 3 receptor) | -0.82 | enough cells in well | 174 | 142
Prok2 (prokineticin 2) | 0.75 | enough cells in well | 171 | 154
Gng8 (guanine nucleotide binding protein (G protein), gamma 8) | 2.55 | enough cells in well | 400 | 343
Dnajc11 (DnaJ heat shock protein family (Hsp40) member C11) | 0.29 | enough cells in well | 224 | 114
Rfc4 (replication factor C (activator 1) 4) | -0.07 | enough cells in well | 251 | 234
Tpbpa (trophoblast specific protein alpha) | -0.71 | enough cells in well | 98.8 | 62.9
Arl4c (ADP-ribosylation factor-like 4C) | 0.64 | enough cells in well | 229 | 163
Alms1 (ALMS1, centrosome and basal body associated) | 2 | enough cells in well | 295 | 269
Phlda3 (pleckstrin homology like domain, family A, member 3) | 1.15 | enough cells in well | 354 | 255
Myh2 (myosin, heavy polypeptide 2, skeletal muscle, adult) | -0.32 | enough cells in well | 272 | 152
Etf1 (eukaryotic translation termination factor 1) | -1.23 | enough cells in well | 114 | 157
Vapa (vesicle-associated membrane protein, associated protein A) | 0.12 | enough cells in well | 117 | 98.6
Fah (fumarylacetoacetate hydrolase) | -0.27 | enough cells in well | 186 | 234
Fam13c (family with sequence similarity 13, member C) | 0.5 | enough cells in well | 219 | 111
Tomm70a (translocase of outer mitochondrial membrane 70A) | 1.56 | enough cells in well | 374 | 176
Tnip2 (TNFAIP3 interacting protein 2) | – | fewer than 50 cells per well; well left out of calls | 109 | 131
Or5m9b (olfactory receptor family 5 subfamily M member 9B) | 2.65 | enough cells in well | 278 | 348
Vmn2r-ps54 (vomeronasal 2, receptor, pseudogene 54) | -0.68 | enough cells in well | 196 | 38.7
Pdcd5 (programmed cell death 5) | -0.17 | enough cells in well | 249 | 155
4930544G11Rik (RIKEN cDNA 4930544G11 gene) | – | fewer than 50 cells per well; well left out of calls | 112 | 78.2
Unc5d (unc-5 netrin receptor D) | 0.55 | enough cells in well | 136 | 109
C1qtnf6 (C1q and tumor necrosis factor related protein 6) | -0.88 | enough cells in well | 91.1 | 95.5

Hits, among the entries above:
gene | Tnf reporter robust z-score | fewer than 50 cells in well | Tnf reporter intensity, replicate 1 | Tnf reporter intensity, replicate 2
Mtmr3 (myotubularin related protein 3) | -1.71 (active) | enough cells in well | 126 | 75.6
